Structures can show the parent of a compound that is named as a salt. The list shows a part of the results. Single values are uncertain here, since repeats match poorly.
Test system: MDA-MB-468
Assay: phospho-S6 immunofluorescence (DAPI-normalised), per-plate z-score; higher = higher phospho-S6 signal (less pathway suppression)
Details: 24 h
Method: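 GPCR-targeted compound library (MedChemExpress HY-L006) tested on MDA-MB-468 PTEN-null TNBC cells in 384-well plates at 0.1, 1 or 10 uM, combined with vehicle, GDC0941 450 nM or lapatinib 1 uM, for 24 h. Phospho-S6 (S240/244) immunofluorescence normalised to DAPI and expressed as a per-plate z-score; values are the mean of biological triplicates.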

[1] = compound 0.1 µM, co-treatment: GDC0941 450 nM
[2] = compound 0.1 µM, co-treatment: lapatinib 1 uM
[3] = compound 0.1 µM, co-treatment: vehicle
[4] = compound 1 µM, co-treatment: GDC0941 450 nM
[5] = compound 1 µM, co-treatment: lapatinib 1 uM
[6] = compound 1 µM, co-treatment: vehicle
[7] = compound 10 µM, co-treatment: GDC0941 450 nM
[8] = compound 10 µM, co-treatment: lapatinib 1 uM
[9] = compound 10 µM, co-treatment: vehicle

| Structure (SMILES) | phospho-S6 immunofluorescence (z-score) [1] | phospho-S6 immunofluorescence (z-score) [2] | phospho-S6 immunofluorescence (z-score) [3] | phospho-S6 immunofluorescence (z-score) [4] | phospho-S6 immunofluorescence (z-score) [5] | phospho-S6 immunofluorescence (z-score) [6] | phospho-S6 immunofluorescence (z-score) [7] | phospho-S6 immunofluorescence (z-score) [8] | phospho-S6 immunofluorescence (z-score) [9] |
| --- | --- | --- | --- | --- | --- | --- | --- | --- | --- |
| CCc1nn(CCCN2CCN(c3cccc(Cl)c3)CC2)c(=O)n1CCOc1ccccc1 [Nefazodone (hydrochloride)] | -0.4 | -0.08 | 0.21 | 0.31 | 0.24 | 0.41 | -4.37 | -2.37 | -1.26 |
| COc1cc2nc(N(C)CCCNC(=O)C3CCCO3)nc(N)c2cc1OC (configuration not stated) [Alfuzosin] | -0.96 | -0.34 | 0.03 | 0.46 | -0.14 | 0.13 |  |  |  |
| CCCCc1ccc(NS(=O)(=O)c2ccc(F)cc2)cc1 | -0.74 | -0.43 | -0.49 | -1.74 | -1.51 | -1.36 | -3.59 | -8.48 | -10.2 |
| Cc1noc(-c2ccc(-c3ccc(CC(=O)O)cc3)cc2)c1NC(=O)O[C@H](C)c1ccccc1 | 1.49 | 1.84 | 0.67 | 1.26 | 1.24 | 0.68 | 0.62 | 1.57 | 0.63 |
| COc1ccccc1OCCNCC(O)COc1cccc2[nH]c3ccccc3c12 (configuration not stated) [Carvedilol] | -2.06 | -0.51 | -2.41 | -1.62 | -0.35 | -2.35 | -4.07 | -4.63 | -3.59 |

Reference: the supplement of paper PMC7411640
